Measured values as given in patent publication US20090123943A1.
These are yes or no findings as the source states them, for the method shown. Some binding calls cover weakened binding; strength is not graded here.

Amino acid sequences for entries named in this document (tags omitted). A change or cut given only in a name is not applied to a line headed by its entry. Chains listed by the source or under a name are the forms on record and can include a tag or linker. Residues count along the entry.
UniProt Q15848: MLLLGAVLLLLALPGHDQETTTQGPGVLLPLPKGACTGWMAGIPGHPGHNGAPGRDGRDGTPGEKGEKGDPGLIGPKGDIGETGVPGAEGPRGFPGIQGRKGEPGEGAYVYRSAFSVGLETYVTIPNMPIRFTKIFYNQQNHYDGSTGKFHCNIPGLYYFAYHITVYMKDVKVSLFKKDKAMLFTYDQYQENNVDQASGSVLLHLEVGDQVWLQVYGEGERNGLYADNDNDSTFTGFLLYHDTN
adiponectin (16-247) from Alexis Biochemicals, cat#ALX-522-063, with an N-terminal FLAG tag: residues 16-244 of Q15848
human adiponectin (native, in human plasma): residues 19-244 of Q15848

Legend:
[1] = target: human adiponectin (native, in human plasma) (human) (UniProt Q15848); experiment: sandwich ELISA on velocity sedimentation fractions of human plasma, mAb as capture
[2] = target: adiponectin (16-247) from Alexis Biochemicals, cat#ALX-522-063, with an N-terminal FLAG tag (UniProt Q15848); experiment: sandwich ELISA standard curve, mAb as capture, C-terminal pAb as detection (standard per paragraph 70, FIG. 11b)
[3] = target: human adiponectin (native, in human plasma) (human) (UniProt Q15848); experiment: ELISA, western blot, immunofluorescence
[4] = target: T1, N-terminal adiponectin peptide … (human); experiment: ELISA, peptide coated on 96 well plates
T1 sequence (peptide): ETTQGPGVLLPLPKGAC

Measured: binding

B1: mAb adiponectin M24 (N-ADIP-M24, Roche) (antibody, V domains shown)
VH: AGGDHGAELVRPGALVRLSCKASGFNIKDYHMSWLKQRPEQGLEWIGWIDPENGNAIHDPKFQDKANITADTSSNTAYLQLSSLTSEDTAVYFCARSGPAWFAYWGQGTLVTVSA
VL: MTQTPLSLPVSLGDQASISCRSSQTIVYSNGNTYLEWYLQKPGQSPKLLIYKVSNRFSGVPDRFSGSGSGTDFTLKISRVESEDLGIYYCFQGSHVPRTFGGGTKLEIKR
binds: all assays above
